Results taken from article PMC3235137.
No constants are given. Whether binding was seen depends on the method and setting. Binding seen in cells or lysates may run through a third protein. Some results given as binding are weak or reduced against the parent protein; the word gives no strength.

Sequences of proteins named here, by UniProt entry; tags and fusion partners are left off. Residues count along the entry.
UniProt Q90593, residues 17-652: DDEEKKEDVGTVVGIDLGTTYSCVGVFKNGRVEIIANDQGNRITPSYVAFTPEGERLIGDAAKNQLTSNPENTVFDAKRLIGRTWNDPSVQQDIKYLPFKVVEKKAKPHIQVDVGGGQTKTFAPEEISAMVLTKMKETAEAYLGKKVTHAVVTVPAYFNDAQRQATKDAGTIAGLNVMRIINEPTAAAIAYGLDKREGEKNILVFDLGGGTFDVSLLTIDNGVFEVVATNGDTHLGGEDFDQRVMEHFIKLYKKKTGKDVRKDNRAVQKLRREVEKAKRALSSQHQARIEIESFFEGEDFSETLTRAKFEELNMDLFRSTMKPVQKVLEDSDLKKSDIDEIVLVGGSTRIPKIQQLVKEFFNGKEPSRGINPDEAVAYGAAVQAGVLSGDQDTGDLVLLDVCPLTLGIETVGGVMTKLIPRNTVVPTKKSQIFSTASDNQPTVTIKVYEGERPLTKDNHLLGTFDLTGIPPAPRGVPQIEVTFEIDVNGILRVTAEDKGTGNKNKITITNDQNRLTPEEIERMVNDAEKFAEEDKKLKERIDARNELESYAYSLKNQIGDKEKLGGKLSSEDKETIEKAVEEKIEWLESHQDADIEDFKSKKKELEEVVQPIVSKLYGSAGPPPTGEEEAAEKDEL
UniProt P80566: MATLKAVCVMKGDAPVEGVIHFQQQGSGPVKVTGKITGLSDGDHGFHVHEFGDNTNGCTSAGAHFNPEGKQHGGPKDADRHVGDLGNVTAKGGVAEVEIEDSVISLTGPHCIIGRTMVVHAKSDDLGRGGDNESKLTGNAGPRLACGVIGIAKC
UniProt Q01406: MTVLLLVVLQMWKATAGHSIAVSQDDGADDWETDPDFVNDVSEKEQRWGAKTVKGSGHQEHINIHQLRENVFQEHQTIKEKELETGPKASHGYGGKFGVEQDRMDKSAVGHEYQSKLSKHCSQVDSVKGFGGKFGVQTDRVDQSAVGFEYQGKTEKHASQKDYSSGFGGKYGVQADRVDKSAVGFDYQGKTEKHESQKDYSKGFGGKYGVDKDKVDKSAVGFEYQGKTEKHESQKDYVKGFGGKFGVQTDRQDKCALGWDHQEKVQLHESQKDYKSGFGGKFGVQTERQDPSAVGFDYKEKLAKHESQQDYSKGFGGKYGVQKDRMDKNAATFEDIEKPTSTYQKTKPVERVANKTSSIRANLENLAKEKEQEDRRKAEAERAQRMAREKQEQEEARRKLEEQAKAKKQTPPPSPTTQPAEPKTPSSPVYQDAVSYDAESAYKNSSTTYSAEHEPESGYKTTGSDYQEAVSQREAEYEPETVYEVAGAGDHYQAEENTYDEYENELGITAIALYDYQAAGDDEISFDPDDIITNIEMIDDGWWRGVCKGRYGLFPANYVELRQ
UniProt P13648: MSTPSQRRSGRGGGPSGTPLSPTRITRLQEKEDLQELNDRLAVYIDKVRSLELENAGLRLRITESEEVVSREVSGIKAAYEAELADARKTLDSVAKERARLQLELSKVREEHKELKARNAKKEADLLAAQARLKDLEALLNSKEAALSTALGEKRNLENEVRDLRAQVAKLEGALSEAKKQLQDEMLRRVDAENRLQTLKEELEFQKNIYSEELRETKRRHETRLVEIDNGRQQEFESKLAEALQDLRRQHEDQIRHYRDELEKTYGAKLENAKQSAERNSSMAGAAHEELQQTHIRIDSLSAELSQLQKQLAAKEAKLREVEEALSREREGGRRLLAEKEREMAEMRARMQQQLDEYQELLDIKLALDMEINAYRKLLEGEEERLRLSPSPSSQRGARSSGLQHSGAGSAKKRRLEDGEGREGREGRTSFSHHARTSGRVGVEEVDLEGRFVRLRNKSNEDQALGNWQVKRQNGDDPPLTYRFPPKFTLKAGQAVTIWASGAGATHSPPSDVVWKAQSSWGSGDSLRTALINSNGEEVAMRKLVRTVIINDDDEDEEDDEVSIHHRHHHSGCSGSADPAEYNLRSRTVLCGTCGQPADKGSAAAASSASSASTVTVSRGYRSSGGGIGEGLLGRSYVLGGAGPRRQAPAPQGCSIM
UniProt P60878: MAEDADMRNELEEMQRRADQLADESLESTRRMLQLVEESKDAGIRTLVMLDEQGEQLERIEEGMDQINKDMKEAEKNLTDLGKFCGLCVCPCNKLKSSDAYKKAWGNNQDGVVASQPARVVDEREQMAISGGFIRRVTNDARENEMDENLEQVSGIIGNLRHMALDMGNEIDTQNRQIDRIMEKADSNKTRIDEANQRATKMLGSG
UniProt Q8AYS8: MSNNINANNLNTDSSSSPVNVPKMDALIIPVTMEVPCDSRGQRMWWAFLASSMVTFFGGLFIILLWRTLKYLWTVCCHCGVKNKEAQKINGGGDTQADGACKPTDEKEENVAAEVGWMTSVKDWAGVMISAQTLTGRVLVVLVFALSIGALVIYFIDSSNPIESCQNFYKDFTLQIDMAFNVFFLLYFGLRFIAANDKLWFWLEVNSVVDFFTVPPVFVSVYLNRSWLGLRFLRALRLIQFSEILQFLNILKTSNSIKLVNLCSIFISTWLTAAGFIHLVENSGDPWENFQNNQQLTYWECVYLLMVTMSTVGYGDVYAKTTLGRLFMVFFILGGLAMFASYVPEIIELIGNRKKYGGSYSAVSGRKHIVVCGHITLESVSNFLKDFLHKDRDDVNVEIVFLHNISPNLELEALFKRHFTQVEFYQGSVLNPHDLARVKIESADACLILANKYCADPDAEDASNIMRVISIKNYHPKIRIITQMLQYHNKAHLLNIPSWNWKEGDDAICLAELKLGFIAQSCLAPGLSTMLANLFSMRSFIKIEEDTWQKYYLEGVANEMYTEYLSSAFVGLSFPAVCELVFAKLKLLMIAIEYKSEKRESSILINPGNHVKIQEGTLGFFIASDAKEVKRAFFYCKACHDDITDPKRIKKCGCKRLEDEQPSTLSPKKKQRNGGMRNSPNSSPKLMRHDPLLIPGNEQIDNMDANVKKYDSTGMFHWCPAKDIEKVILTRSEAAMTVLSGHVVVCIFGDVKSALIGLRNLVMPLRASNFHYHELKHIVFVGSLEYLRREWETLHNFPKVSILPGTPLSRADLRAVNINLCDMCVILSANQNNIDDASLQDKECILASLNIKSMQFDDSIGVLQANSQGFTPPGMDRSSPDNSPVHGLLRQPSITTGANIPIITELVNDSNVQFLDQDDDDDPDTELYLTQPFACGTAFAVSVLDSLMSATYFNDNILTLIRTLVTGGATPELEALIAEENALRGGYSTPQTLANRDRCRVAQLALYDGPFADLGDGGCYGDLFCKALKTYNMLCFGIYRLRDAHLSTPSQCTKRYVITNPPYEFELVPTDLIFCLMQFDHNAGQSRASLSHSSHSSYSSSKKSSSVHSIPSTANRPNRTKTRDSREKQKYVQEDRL

How the values were obtained:
Assay in all cases: co-IP; reciprocal coIP from chick cochleae with 2.5-6 µg of antibody to the BKAP, protein G beads; blot with anti-BKα; controls: antibody preadsorbed with antigen, uncomplexed beads
[1] = target: T1, prohibitin (chicken (endogenous in chick cochlea)) (UniProt P84173)
T1 sequence: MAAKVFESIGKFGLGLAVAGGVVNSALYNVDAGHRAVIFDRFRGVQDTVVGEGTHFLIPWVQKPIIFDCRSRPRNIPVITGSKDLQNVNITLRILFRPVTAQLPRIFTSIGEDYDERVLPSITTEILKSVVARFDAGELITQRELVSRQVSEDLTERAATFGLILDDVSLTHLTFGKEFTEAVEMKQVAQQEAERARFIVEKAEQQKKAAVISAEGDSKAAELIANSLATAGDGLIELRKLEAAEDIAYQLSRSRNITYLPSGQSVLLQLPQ

[2] = target: glucose-related protein 78 (chicken (endogenous in chick cochlea)) (UniProt Q90593)
[3] = target: superoxide dismutase 1 (chicken (endogenous in chick cochlea)) (UniProt P80566)
[4] = target: T2, heat shock protein (HSP) 60 (chicken (endogenous in chick cochlea)) (UniProt Q5ZL72)
T2 sequence: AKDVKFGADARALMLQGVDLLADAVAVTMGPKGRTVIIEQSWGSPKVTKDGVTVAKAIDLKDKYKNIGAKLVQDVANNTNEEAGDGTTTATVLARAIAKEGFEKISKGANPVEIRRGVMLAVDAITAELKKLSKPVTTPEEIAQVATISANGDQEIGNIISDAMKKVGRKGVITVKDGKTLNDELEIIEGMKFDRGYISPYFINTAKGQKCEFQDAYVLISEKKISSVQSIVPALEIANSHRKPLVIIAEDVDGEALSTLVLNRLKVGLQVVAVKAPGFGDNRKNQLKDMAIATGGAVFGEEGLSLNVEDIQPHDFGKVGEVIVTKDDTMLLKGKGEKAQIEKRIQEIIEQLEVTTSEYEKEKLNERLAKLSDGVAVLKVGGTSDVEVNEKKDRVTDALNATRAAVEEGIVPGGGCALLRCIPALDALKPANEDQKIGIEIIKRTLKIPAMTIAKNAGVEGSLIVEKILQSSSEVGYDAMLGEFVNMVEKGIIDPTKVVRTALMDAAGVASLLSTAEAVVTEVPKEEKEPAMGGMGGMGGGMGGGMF

[5] = target: T3, 14-3-3γ (chicken (endogenous in chick cochlea)) (UniProt Q5F3W6)
T3 sequence: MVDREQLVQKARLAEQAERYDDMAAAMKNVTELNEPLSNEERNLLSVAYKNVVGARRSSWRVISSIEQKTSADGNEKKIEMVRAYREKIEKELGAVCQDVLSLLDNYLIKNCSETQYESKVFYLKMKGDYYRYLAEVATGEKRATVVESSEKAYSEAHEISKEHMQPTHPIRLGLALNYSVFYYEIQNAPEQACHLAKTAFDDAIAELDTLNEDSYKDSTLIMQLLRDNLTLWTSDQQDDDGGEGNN

[6] = target: cortactin (chicken (endogenous in chick cochlea)) (UniProt Q01406)
[7] = target: T4, stathmin (chicken (endogenous in chick cochlea)) (UniProt P31395)
T4 sequence: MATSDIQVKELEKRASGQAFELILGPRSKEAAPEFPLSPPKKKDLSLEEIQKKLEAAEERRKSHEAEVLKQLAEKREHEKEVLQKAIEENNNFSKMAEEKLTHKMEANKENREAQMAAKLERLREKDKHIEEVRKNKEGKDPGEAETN

[8] = target: T5, annexin A5 (chicken (endogenous in chick cochlea)) (UniProt P17153)
T5 sequence: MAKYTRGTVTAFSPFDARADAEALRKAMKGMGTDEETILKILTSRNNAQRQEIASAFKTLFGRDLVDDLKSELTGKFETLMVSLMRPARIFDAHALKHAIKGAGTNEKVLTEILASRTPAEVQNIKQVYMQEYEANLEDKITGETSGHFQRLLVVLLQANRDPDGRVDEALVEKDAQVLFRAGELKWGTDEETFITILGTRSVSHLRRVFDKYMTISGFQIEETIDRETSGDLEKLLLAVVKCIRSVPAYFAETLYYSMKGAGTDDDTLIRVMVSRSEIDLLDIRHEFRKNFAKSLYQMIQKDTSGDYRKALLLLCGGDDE

[9] = target: lamin A (chicken (endogenous in chick cochlea)) (UniProt P13648)
[10] = target: T6, lin-7 homolog C (chicken (endogenous in chick cochlea)) (UniProt Q5F425)
T6 sequence: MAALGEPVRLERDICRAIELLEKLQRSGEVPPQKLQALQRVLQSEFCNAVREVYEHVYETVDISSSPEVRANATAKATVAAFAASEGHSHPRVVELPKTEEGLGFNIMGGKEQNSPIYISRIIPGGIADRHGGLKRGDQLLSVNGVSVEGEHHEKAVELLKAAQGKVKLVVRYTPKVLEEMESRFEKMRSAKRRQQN

[11] = target: synaptosomal-associated protein 25 (chicken (endogenous in chick cochlea)) (UniProt P60878)

Measured: binding

large-conductance Ca2+-activated K+ (BK) channel α-subunit (from UniProt Q8AYS8 1-1137)
binds: all assays above
